Here are results for 61 compounds from PubChem BioAssay AID2685 (National Center for Advancing Translational Sciences (NCATS), 2010).

What is called AC50 is the midpoint of the concentration-response curve, whichever way the signal moves. Read a low AC50 as greater potency.

This is one part of the list. These are further read-outs of the screen, such as a control signal, another cell line or another target. No call is given for them. The list favours compounds with an active or inconclusive main result. Potencies come from curve fits of mixed quality, noted in brackets.

The test is described as follows: qHTS Assay for Lipid Storage Modulators in Drosophila S3 Cells.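 On cell number change: cells counted by Cell Tracker Red CMTPX staining in the red channel.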 The conditions noted are these: BODIPY lipid droplet fluorescence, 18-24 h; for cell number change: measured here: cell count max response, cells fed with added oleic acid. The method, boiled down:
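Drosophila S3 cells loaded with oleic acid (400 uM, as added) and compounds at several concentrations; lipid droplets imaged by 488-nm laser-scanning cytometry, 500–530 nm intensity and object ratio to cell channel. Percent activity normalized to 20 uM Triacsin C.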
(Quantitative high-throughput screening tests each substance at several concentrations.)

Where [1] appears, read: measured here: lipid fluorescence (Fed channel) AC50, cells fed with added oleic acid.
The mark [2] stands for this setting: measured here: cell number channel AC50, cells fed with added oleic acid.

As for `Cc1ccccc1C(=O)Nc1cccc(N)c1`, the cell number change is -0.674%.
Consider `CN1C(=O)S/C(=C/c2ccc(OCc3cccc(C(=O)O)c3)cc2)C1=O`, for which the cell number change worked out at 25.9%. Further, the AC50 under setting [1] is 5.8 µM [rising, single point].
Consider `COc1ccc(-c2cc(C)no2)cc1S(=O)(=O)Nc1cccc(CN2CCCC2)c1`, for which the AC50 under setting [1] was 29.1 µM [rising, single point].
As for `O=C(CN1C(=O)NC2(CCCC2)C1=O)OCCOc1cccc(Br)c1`, the AC50 under setting [2] is 4.11 µM [rising, single point].
Consider `COCCN1CCN(Cc2cn(C)nc2-c2cccc(Cl)c2)CC1`, for which the cell number change came to 47.7%. Also, under setting [2], the half-maximal activity concentration (AC50) is 20.6 µM [rising, partial curve]. Also, the AC50 under setting [1] was 0.13 µM [rising, full curve, poor fit].
Turning to `COc1ccccc1-c1cc(C(=O)NCCc2ccccc2)no1`, the AC50 under setting [1] is 7.31 µM [rising, partial curve].
Take `Nc1nc(=S)c2ncn(C3CCCC3)c2[nH]1`: the cell number change was determined as 2.77%. In addition, the AC50 under setting [2] was 0.13 µM [falling, full curve, poor fit].
On to `CCOC(=O)N1CCN(C(=O)c2ccc(NS(=O)(=O)c3ccc4[nH]c(=O)[nH]c4c3)cc2)CC1`, for which the cell number change is -9%.
For `Cc1ccc(C(=O)OCC(=O)N2CCOCC2)c(C)c1`, the cell number change is 0.901%. In addition, the AC50 under setting [1] was 0.13 µM [falling, full curve, poor fit].
Consider `COc1cc([N+](=O)[O-])ccc1NC(=O)Nn1cnnc1`, for which the cell number change came to 26.7%. The AC50 under setting [1] was 4.47 µM [rising, partial curve].
Turning to `CCCCC(=O)OCC(=O)N1N=C(c2c[nH]c3ccccc23)C(O)C1c1ccc(OC)cc1` (stereo unspecified), the cell number change is -42.4%. Further, the AC50 under setting [2] was 20.6 µM [falling, single point]. Besides, the AC50 under setting [1] is 29.1 µM [falling, single point].
For `Cc1c(C#N)c(N=CN(C)C)c(C(=O)c2ccc(Br)cc2)n1-c1ccccc1`, the cell number change was determined as 19.4%.
Turning to `Cc1ccc(-n2c(SCC(=O)NCCC3=CCCCC3)nc3n[nH]c(C)c3c2=N)cc1Cl`, the cell number change was determined as 4.96%. Besides, under setting [1], the half-maximal activity concentration (AC50) was 0.58 µM [rising, single point].
Take `COC(=O)c1cc(COC(=O)c2cccnc2SC)oc1C`: the cell number change is -1.21%. Also, the AC50 under setting [1] was 7.31 µM [rising, partial curve].
For the compound `CSc1ncccc1C(=O)NCCc1ccccc1`, the cell number change is -10.5%.
`COc1ccc(C(=O)NCCCn2ccnc2)cc1`: the cell number change is -33.2%. For the same compound, under setting [2], the AC50 is 14.6 µM [falling, partial curve, poor fit].
For the compound `Cc1ccc(C2=NN(C(=O)CCC(=O)O)C(c3cccc([N+](=O)[O-])c3)C2)cc1` (stereo unspecified), the cell number change is -20.1%. Further, the half-maximal activity concentration (AC50) under setting [1] is 6.51 µM [falling, single point].
On to `COC(=O)COc1ccc(S(=O)(=O)Nc2ccc3c(c2)OCCO3)cc1Cl`, for which the cell number change stood at 5.9%. Moreover, under setting [2], the AC50 was 0.517 µM [falling, partial curve]. Under setting [1], the AC50 was 5.17 µM [falling, partial curve].
Regarding `C=CCn1c(CNc2ccc(C)cc2)nnc1SCC(=O)N/N=C/c1ccc(O)cc1`, the cell number change was -1.03%. Further, the AC50 under setting [1] is 1.16 µM [rising, single point].
For the compound `Cc1ccc(NC(=S)Nc2ccc3nc(-c4ccccn4)c(-c4ccccn4)nc3c2)cc1C`, the cell number change amounted to 14.3%. Besides, the AC50 under setting [1] is 0.92 µM [rising, full curve, poor fit].
Consider `CCOC(=O)c1ccc(OCC(=O)c2ccc(O)cc2O)cc1`, for which the cell number change was -0.101%. The AC50 under setting [1] is 0.00651 µM [falling, full curve, poor fit].
Turning to `CCN(CC(=O)Nc1c(F)cccc1F)C(=O)Cc1sc(C)nc1-c1ccc(F)cc1`, the cell number change came to 65%. The AC50 under setting [2] is 9.2 µM [rising, partial curve].
Consider `CCSc1cc(N2CCCC2)nc(-c2cccc(C)c2)n1`, for which the cell number change turned out to be 2.22%. The AC50 under setting [1] was 6.51 µM [rising, single point].
On to `OCC#Cc1cnc2ccccc2c1`, for which the cell number change was found to be 87.3%. Further, the AC50 under setting [2] was 29.1 µM [rising, single point].
Turning to `COc1ccc(C(=O)NC(C)CCc2ccccc2)c(O)c1` (stereo unspecified), the cell number change is 115%. Besides, under setting [2], the AC50 was 3.26 µM [falling, single point].
As to `O=C(NC1CCCN(Cc2ccc(Cl)cc2)C1)c1cccc(N2CCCC2=O)c1` (stereo unspecified), the cell number change came to 15.5%. Further, the AC50 under setting [1] is 0.92 µM [rising, full curve, poor fit].
On to `CC(C)n1c(CNC(=O)c2ccccc2)nc2ccccc21`, for which the half-maximal activity concentration (AC50) under setting [1] is 3.66 µM [rising, partial curve].
On the same count and under the same terms, under `Cc1ccc(NC(=O)c2ccccc2F)nc1` stands 2.31 µM [rising, partial curve].
In the case of `Cc1noc(C)c1COc1ccccc1C(=O)NNC(=O)c1ccc(F)cc1`, the cell number change came to 14.3%.
In the case of `CCOC(=O)C1CCN(C(=O)COc2ccc([N+](=O)[O-])cc2)CC1`, the cell number change is -6.77%. Further, the AC50 under setting [1] is 6.51 µM [rising, single point].
Turning to `c1nc(NCCN2CCOCC2)c2sc3nc(N4CCOCC4)c4c(c3c2n1)CCC4`, the cell number change is -2.07%. In addition, the concentration at half-maximal activity (AC50) under setting [1] is 2.31 µM [rising, single point].
With `COC(=O)Cn1ncc(N(C)Cc2ccccc2)c(Cl)c1=O`, the cell number change is -14.4%.
With `CCOc1ccccc1NC(=O)c1ccccc1NC(=O)c1ccco1`, the cell number change worked out at 35.5%. Moreover, the AC50 under setting [1] was 35.5 µM [falling, single point].
For the compound `Cc1c(C(=O)NCC(c2ccco2)N(C)C)oc2c(Cl)cccc12` (stereo unspecified), the cell number change was found to be 41.2%. Also, the AC50 under setting [2] was 11.6 µM [rising, partial curve]. For the same compound, the AC50 under setting [1] is 10.3 µM [rising, partial curve].
As to `CC(C)COc1ccc(C(=O)N(Cc2ccco2)C2CCS(=O)(=O)C2)cc1` (stereo unspecified), the cell number change was -20.7%.
As for `CCC/C(=C1/c2ccccc2C(=O)N1c1ccccc1)c1ccc2c(c1)OCO2`, the cell number change turned out to be 12%. Also, under setting [1], the AC50 was 1.16 µM [rising, partial curve, poor fit].
For `COc1ccc(C2C3=C(Nc4ncnn42)c2ccccc2CC3)cc1OC` (stereo unspecified), the cell number change is -10.4%. For the same compound, under setting [1], the AC50 was 0.13 µM [rising, full curve, poor fit].
With `CC(CCc1ccccc1)NC(=O)C(=O)N1CCOCC1` (stereo unspecified), the cell number change is -12.5%. Under setting [1], the AC50 was 29.1 µM [falling, single point].
For the compound `O=C(c1cc(-c2cccc(O)c2)on1)N1CCN(C(c2ccccc2)c2ccccc2)CC1`, the concentration at half-maximal activity (AC50) under setting [1] is 0.58 µM [falling, single point].
`CCCCn1c(N)c(N(CCOC)C(=O)c2ccc(N3CCCC3=O)cc2)c(=O)[nH]c1=O`: the cell number change was 9.92%. Moreover, under setting [1], the AC50 is 29.1 µM [rising, single point].
In the case of `O=S(=O)(c1cccc2nsnc12)N1CCCCC1`, the cell number change turned out to be 19.5%. Besides, the AC50 under setting [1] was 29.1 µM [falling, single point].
`Cc1ccc(C(=O)C(C)OC(=O)Cc2c[nH]c3ccccc23)cc1` (stereo unspecified): the AC50 under setting [1] is 29.1 µM [rising, single point].
Turning to `Cc1ccc(NC(=O)CCN2C(=O)C3CCCCC3C2=O)c(O)c1` (stereo unspecified), the cell number change was -5.62%. Also, the AC50 under setting [2] was 0.184 µM [falling, full curve, poor fit].
For the compound `CC(C)(C)c1ccc(C2=CSC3=NCCN23)cc1`, the cell number change is 28%. For the same compound, under setting [1], the AC50 is 10.3 µM [rising, partial curve, poor fit].
`COc1ccc(CCNC(=O)C2CC(c3cccc(F)c3)=NO2)cc1` (stereo unspecified): the cell number change was determined as 20.2%.
Turning to `Cc1cc2nn(-c3ccc(F)cc3)nc2cc1N`, the cell number change was -26.4%. In addition, the AC50 under setting [1] was 29.1 µM [falling, single point].
As for `CCOC(=O)c1sc(NC(=O)CSc2nncs2)c(C(=O)OCC)c1C`, the cell number change was 30.4%. Besides, the AC50 under setting [2] was 0.259 µM [rising, full curve]. In addition, the AC50 under setting [1] was 1.84 µM [falling, full curve].
Consider `N#Cc1ccccc1NC(=O)COC(=O)c1ccc(S(=O)(=O)N2CCCC2)cc1`, for which the cell number change is 11.2%. In addition, the AC50 under setting [1] was 0.58 µM [falling, single point].
With `CC(NC(=O)c1cc(-c2ccc3c(c2)OCO3)nc2ccccc12)C(C)(C)C` (stereo unspecified), the AC50 reads like this: under setting [2], 2.31 µM [rising, partial curve, poor fit]; under setting [1], 2.31 µM [rising, full curve].
As for `O=C(CCCc1ccccc1)NCc1cn2ccsc2n1`, the cell number change is -74.1%. For the same compound, the AC50 under setting [2] was 14.6 µM [falling, partial curve, poor fit]. Besides, under setting [1], the AC50 is 0.651 µM [falling, full curve].
Turning to `CCOCCOC(=O)c1cccc(NC(=O)OCC)c1`, the cell number change is -19.6%. For the same compound, under setting [1], the AC50 was 6.51 µM [falling, single point].
Take `CCOC(=O)N1CCN(C(=O)C(C)c2ccc([N+](=O)[O-])cc2)CC1` (stereo unspecified): the cell number change was -4.76%. In addition, the concentration at half-maximal activity (AC50) under setting [1] is 6.51 µM [falling, single point].
In the case of `Cc1onc(-c2c(Cl)cccc2Cl)c1C(=O)NCCCN1CCOCC1`, the cell number change was determined as 1.72%. Besides, the AC50 under setting [1] was 1.46 µM [falling, partial curve, poor fit].
In the case of `O=C1c2cccnc2C(Nc2ccc(S(=O)(=O)N3CCCCCC3)cc2)N1Cc1ccccc1` (stereo unspecified), the cell number change was -46.2%. Moreover, the AC50 under setting [2] was 32.6 µM [falling, single point]. Moreover, the AC50 under setting [1] is 14.6 µM [falling, partial curve, poor fit].
As for `CC(C)(C)c1cc(C(=O)NNC(=O)c2ccc(Cl)cc2)no1`, the cell number change was found to be 19.2%. Moreover, the AC50 under setting [1] is 18.4 µM [rising, single point].
Regarding `COC(=O)[C@H](C)NC(=O)NC1CCN(Cc2ccccc2)CC1`, the cell number change is -37.8%. For the same compound, the half-maximal activity concentration (AC50) under setting [2] is 0.00461 µM [falling, full curve, poor fit]. For the same compound, under setting [1], the AC50 is 23.1 µM [falling, partial curve].
Turning to `CN(C)CCNC(=O)C1(O)c2cc(Br)ccc2NC(=O)N1c1ccc(Cl)cc1` (stereo unspecified), the cell number change came out at 12.5%. The AC50 under setting [1] is 29.1 µM [rising, single point].
Regarding `O=C(Nc1ccc(F)cc1)Nc1ccc(N2CCOCC2)c2nonc12`, the cell number change was determined as 8.89%.
On to `N#Cc1sc2nc3c(c(-c4cccnc4)c2c1N)CCC3`, for which the cell number change worked out at 80.8%. Also, under setting [2], the AC50 was 7.31 µM [rising, partial curve]. In addition, the concentration at half-maximal activity (AC50) under setting [1] was 0.291 µM [rising, full curve].
Regarding `CCOc1ccc(C(=O)N2CCCC(c3nc(-c4ccc(C)o4)no3)C2)cc1` (stereo unspecified), the cell number change was found to be 53.8%. In addition, the AC50 under setting [2] is 25.9 µM [rising, partial curve, poor fit]. Further, the AC50 under setting [1] is 1.64 µM [falling, full curve, poor fit].
With `COc1cc(C(=O)N2CCNCC2)cc(OC)c1OC`, the cell number change turned out to be 4.21%. The AC50 under setting [1] was 6.51 µM [falling, single point].
